Experimental data: paper PMC10366109
These are yes or no findings as the source states them, for the method shown. In cells and extracts the contact can be indirect. Some results given as binding are weak or reduced against the parent protein; the word gives no strength. Where a sequence is shown, tags or fusion partners need not be part of it.

Sequences of proteins named here, by UniProt entry; tags and fusion partners are left off.
UniProt Q9Z148: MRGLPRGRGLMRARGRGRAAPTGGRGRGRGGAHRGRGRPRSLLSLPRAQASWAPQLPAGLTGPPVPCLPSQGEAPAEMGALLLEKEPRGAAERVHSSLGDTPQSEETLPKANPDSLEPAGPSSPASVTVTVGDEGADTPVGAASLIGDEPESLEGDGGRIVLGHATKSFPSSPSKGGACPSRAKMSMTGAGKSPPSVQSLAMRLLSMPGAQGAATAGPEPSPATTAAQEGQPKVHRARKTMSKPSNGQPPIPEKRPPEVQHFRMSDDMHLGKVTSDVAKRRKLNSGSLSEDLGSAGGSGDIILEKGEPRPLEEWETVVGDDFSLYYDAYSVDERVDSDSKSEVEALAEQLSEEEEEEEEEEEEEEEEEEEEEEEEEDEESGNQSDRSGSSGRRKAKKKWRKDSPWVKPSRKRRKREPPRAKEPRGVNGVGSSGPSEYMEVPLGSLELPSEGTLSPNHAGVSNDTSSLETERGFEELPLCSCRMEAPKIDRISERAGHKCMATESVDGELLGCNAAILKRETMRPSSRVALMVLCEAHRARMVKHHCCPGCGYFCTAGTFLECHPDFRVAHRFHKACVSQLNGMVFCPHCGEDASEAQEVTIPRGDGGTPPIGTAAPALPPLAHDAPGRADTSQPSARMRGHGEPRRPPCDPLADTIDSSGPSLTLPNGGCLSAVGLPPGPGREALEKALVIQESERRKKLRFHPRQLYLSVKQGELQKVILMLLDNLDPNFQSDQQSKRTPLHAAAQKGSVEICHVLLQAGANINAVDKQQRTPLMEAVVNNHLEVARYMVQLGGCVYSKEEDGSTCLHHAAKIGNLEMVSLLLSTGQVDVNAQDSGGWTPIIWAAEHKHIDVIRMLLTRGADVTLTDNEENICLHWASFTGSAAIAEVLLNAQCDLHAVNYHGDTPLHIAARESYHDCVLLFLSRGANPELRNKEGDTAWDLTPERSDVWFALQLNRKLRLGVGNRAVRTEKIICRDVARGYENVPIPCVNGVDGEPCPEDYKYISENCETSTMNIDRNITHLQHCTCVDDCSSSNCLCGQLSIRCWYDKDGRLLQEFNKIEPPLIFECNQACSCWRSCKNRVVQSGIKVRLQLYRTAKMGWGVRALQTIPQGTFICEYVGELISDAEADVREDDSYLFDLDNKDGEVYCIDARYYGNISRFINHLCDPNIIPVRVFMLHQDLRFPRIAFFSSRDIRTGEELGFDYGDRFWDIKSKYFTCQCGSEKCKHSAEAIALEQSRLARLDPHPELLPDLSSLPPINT

Molecular target: T1, Flag-ZFP296 (mouse) (UniProt E9Q6W4)
T1 sequence: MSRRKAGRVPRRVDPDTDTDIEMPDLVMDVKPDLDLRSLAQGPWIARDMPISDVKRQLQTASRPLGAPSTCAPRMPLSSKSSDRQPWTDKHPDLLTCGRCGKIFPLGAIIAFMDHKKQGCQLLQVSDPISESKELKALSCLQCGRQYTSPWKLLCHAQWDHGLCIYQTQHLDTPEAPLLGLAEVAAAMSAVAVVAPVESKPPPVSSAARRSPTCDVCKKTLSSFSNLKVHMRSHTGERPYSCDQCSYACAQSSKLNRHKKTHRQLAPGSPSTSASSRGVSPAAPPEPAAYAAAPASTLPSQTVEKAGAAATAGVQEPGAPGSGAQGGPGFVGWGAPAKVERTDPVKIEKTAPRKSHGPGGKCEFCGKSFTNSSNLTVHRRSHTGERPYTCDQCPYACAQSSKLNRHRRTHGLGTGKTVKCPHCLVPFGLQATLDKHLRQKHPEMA
Experiment: co-IP; Flag-ZFP296 or its deletion mutants coexpressed with Myc-G9a or Myc-GLP in HEK293T cells; nuclei extracted in 500 mM NaCl, 0.5% IGEPAL CA-630 with Cryonase nuclease, supernatant diluted 4-fold; magnetic beads with anti-Flag (or anti-Myc-tag) antibody, 3 h, 4 °C; western blot with anti-Myc-tag then anti-Flag-tag antibody

- binding: binds
Substance: Myc-G9a (from UniProt Q9Z148 1-1263) (enzyme)
